The numbers were not newly measured in US10787446B2 (GENENTECH, INC., priority 2015, dated 2020), which cites them from elsewhere.

For this data set the following is noted: administered topically (Lidoderm patch); cited from earlier work.

For the compound `CCN(CC)CC(=O)Nc1c(C)cccc1C` [lidocaine], the plasma concentrations entry is recorded as “about 1 μM”.
